From article doi:10.1101/2022.10.24.513561
These are yes or no findings as the source states them, for the method shown. Binding seen in cells or lysates may run through a third protein. Here binding means that the protein was enriched with, or labelled near, the bait; the list need not be complete. Sequences can lack the tags named with a protein. Values belong to the molecule of their own block, whether it stands above or below them.

By UniProt entry, the sequences of proteins in these tests, tags left out.
UniProt P20585: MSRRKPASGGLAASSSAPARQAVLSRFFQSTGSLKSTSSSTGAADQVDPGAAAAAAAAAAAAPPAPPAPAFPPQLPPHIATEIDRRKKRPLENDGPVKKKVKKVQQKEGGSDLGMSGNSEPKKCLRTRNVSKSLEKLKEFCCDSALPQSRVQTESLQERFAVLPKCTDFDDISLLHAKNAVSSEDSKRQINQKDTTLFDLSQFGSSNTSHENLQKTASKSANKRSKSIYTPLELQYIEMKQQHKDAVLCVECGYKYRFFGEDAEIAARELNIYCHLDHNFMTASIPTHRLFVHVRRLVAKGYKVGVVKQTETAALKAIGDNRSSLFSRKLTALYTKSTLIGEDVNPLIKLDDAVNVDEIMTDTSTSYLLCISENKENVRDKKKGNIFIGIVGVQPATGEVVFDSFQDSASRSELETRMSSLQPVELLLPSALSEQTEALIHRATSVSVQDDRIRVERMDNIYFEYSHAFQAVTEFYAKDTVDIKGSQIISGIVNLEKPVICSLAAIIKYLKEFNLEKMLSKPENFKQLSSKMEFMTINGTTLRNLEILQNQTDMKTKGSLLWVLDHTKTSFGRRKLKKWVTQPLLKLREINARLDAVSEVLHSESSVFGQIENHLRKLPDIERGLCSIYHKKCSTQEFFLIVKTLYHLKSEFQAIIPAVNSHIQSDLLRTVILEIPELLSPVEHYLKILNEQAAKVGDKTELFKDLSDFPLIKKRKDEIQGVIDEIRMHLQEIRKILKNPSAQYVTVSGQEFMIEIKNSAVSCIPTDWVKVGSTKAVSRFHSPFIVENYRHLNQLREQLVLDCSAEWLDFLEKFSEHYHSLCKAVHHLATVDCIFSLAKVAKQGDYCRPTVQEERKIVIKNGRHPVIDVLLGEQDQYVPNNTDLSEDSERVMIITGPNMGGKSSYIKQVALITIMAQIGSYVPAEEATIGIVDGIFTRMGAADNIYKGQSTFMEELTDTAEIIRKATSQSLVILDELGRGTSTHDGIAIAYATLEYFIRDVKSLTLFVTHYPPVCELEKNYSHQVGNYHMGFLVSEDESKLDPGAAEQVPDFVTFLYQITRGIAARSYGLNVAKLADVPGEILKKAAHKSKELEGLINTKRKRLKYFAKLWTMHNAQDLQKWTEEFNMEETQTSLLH

Target: T1, FLAG-BioID2-RPA4 (human) (UniProt Q13156)
T1 sequence: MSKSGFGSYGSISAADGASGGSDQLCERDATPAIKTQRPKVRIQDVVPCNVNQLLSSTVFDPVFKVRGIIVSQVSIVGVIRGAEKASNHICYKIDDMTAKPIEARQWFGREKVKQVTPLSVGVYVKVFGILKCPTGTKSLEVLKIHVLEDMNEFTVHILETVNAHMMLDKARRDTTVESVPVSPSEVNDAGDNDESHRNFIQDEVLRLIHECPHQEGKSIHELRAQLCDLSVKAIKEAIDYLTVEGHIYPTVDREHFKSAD
Assay: proximity labelling

binding: binds
Molecule: MSH3 (from UniProt P20585 1-1137)

binding: binds
B1: XPG (protein, UniProt P28715 1-1186)
chain: MGVQGLWKLLECSGRQVSPEALEGKILAVDISIWLNQALKGVRDRHGNSIENPHLLTLFHRLCKLLFFRIRPIFVFDGDAPLLKKQTLVKRRQRKDLASSDSRKTTEKLLKTFLKRQAIKTAFRSKRDEALPSLTQVRRENDLYVLPPLQEEEKHSSEEEDEKEWQERMNQKQALQEEFFHNPQAIDIESEDFSSLPPEVKHEILTDMKEFTKRRRTLFEAMPEESDDFSQYQLKGLLKKNYLNQHIEHVQKEMNQQHSGHIRRQYEDEGGFLKEVESRRVVSEDTSHYILIKGIQAKTVAEVDSESLPSSSKMHGMSFDVKSSPCEKLKTEKEPDATPPSPRTLLAMQAALLGSSSEEELESENRRQARGRNAPAAVDEGSISPRTLSAIKRALDDDEDVKVCAGDDVQTGGPGAEEMRINSSTENSDEGLKVRDGKGIPFTATLASSSVNSAEEHVASTNEGREPTDSVPKEQMSLVHVGTEAFPISDESMIKDRKDRLPLESAVVRHSDAPGLPNGRELTPASPTCTNSVSKNETHAEVLEQQNELCPYESKFDSSLLSSDDETKCKPNSASEVIGPVSLQETSSIVSVPSEAVDNVENVVSFNAKEHENFLETIQEQQTTESAGQDLISIPKAVEPMEIDSEESESDGSFIEVQSVISDEELQAEFPETSKPPSEQGEEELVGTREGEAPAESESLLRDNSERDDVDGEPQEAEKDAEDSLHEWQDINLEELETLESNLLAQQNSLKAQKQQQERIAATVTGQMFLESQELLRLFGIPYIQAPMEAEAQCAILDLTDQTSGTITDDSDIWLFGARHVYRNFFNKNKFVEYYQYVDFHNQLGLDRNKLINLAYLLGSDYTEGIPTVGCVTAMEILNEFPGHGLEPLLKFSEWWHEAQKNPKIRPNPHDTKVKKKLRTLQLTPGFPNPAVAEAYLKPVVDDSKGSFLWGKPDLDKIREFCQRYFGWNRTKTDESLFPVLKQLDAQQTQLRIDSFFRLAQQEKEDAKRIKSQRLNRAVTCMLRKEKEAAASEIEAVSVAMEKEFELLDKAKGKTQKRGITNTLEESSSLKRKRLSDSKGKNTCGGFLGETCLSESSDGSSSEDAESSSLMNVQRRTAAKEPKTSASDSQNSVKEAPVKNGGATTSSSSDSDDDGGKEKMVLVTARSVFGKKRRKLRRARGRKRKT
